# Measured values published in PMC4264851.
# No constants are given. Whether binding was seen depends on the method and setting. Binding seen in cells or lysates may run through a third protein. Here binding means that the protein was enriched with, or labelled near, the bait; the list need not be complete. Where a sequence is shown, tags or fusion partners need not be part of it.
# T1: Utp15-FLAG (S. cerevisiae) (UniProt Q04305)
# T1 sequence: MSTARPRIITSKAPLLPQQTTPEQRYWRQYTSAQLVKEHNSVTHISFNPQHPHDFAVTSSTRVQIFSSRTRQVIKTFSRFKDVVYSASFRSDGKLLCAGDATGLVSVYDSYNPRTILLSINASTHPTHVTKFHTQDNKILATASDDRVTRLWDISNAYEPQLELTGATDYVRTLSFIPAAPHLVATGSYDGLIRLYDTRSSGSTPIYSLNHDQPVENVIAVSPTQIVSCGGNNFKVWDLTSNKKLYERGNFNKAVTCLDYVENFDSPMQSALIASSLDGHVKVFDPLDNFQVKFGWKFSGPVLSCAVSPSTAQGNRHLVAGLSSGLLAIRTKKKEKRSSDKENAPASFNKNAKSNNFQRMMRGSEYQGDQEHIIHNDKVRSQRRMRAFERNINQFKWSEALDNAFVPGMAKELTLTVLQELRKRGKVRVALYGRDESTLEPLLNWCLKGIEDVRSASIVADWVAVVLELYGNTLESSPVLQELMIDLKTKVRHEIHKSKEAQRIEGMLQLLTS
# T2: Nan1-HA (S. cerevisiae) (UniProt Q02931)
# T2 sequence: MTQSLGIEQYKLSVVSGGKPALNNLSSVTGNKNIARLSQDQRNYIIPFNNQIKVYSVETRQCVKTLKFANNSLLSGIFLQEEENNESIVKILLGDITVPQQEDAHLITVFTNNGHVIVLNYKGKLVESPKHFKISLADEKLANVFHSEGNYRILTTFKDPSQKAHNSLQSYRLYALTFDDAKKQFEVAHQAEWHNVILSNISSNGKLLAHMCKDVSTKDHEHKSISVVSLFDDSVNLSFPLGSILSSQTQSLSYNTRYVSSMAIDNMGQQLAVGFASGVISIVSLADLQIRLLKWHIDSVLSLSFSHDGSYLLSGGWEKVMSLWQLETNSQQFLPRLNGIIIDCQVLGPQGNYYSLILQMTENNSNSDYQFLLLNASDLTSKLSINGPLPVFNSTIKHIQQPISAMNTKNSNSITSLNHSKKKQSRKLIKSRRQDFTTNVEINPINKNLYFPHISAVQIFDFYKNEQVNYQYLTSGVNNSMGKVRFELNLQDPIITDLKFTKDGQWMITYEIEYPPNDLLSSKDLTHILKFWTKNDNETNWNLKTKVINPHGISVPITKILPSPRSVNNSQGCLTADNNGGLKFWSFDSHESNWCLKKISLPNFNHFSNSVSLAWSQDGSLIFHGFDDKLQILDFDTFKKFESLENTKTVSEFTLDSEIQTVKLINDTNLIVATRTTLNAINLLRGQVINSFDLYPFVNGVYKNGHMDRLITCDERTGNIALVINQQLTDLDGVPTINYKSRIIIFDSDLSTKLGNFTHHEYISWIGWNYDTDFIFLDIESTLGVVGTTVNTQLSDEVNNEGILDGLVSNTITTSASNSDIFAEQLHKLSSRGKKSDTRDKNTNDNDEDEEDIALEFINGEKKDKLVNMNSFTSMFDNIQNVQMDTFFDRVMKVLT
# T3: Utp12-FLAG (S. cerevisiae) (UniProt Q12220)
# T3 sequence: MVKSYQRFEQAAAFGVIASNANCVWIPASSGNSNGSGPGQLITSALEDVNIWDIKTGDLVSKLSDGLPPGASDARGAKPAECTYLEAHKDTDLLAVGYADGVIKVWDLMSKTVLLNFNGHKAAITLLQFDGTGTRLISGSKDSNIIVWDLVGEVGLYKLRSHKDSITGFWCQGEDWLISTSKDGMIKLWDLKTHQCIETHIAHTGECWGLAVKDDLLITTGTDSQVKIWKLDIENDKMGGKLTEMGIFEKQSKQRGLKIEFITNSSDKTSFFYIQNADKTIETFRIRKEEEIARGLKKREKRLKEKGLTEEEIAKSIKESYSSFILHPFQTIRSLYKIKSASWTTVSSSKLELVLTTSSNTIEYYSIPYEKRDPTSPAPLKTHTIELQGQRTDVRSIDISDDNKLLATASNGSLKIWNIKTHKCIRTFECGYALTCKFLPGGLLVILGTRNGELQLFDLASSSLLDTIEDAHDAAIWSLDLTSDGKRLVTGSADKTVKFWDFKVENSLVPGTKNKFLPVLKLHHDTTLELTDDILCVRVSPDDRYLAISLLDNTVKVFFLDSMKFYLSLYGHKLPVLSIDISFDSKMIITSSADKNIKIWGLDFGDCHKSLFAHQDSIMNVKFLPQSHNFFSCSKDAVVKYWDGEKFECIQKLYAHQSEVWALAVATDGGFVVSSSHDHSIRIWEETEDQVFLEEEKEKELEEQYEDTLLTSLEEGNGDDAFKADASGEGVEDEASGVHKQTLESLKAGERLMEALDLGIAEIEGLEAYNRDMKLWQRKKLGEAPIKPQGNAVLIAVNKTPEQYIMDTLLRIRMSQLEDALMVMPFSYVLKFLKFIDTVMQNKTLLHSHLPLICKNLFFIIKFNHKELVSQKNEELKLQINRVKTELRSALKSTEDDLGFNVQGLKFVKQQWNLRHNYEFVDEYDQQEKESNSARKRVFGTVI
# What was measured:
# [1] = target: T1, Utp15-FLAG (S. cerevisiae); assay: affinity purification with mass spectrometry; Utp4, Utp5, Utp8, Utp9, Utp10, Utp15-FLAG and Nan1-HA co-expressed in SF21 cells (bacmid K2000); one-step, bait Utp15-FLAG on anti-FLAG affinity matrix, lysate cleared by low-speed centrifugation, buffer A100+ (20 mM Tris-HCl pH 8, 100 mM KCl, 5 mM Mg(OAc)2, 0.5% Triton X-100, 0.1% Tween-20), 4°C, FLAG peptide elution; SDS-PAGE, Coomassie, MS of bands
# Nan1-HA (S. cerevisiae) = target: T2, Nan1-HA (S. cerevisiae); assay: affinity purification with mass spectrometry; bacmid K2000 (all seven tUTP candidates); two-step: anti-FLAG eluate (Utp15-FLAG) purified again on anti-HA affinity matrix with Nan1-HA as bait, HA peptide elution; SDS-PAGE, Coomassie, MS of bands
# [2] = target: T1, Utp15-FLAG (S. cerevisiae); assay: affinity purification with mass spectrometry; bacmid K2123 (five pentamer proteins); two-step: IgG Sepharose/TEV eluate (Utp4-TAP) purified again on anti-FLAG affinity matrix with Utp15-FLAG as bait, FLAG peptide elution; SDS-PAGE, Coomassie, MS of bands
# [3] = target: T3, Utp12-FLAG (S. cerevisiae); assay: affinity purification with mass spectrometry; Pwp2, Utp6-HA, Utp12-FLAG, Utp13, Utp18 and Utp21 co-expressed in SF21 cells (bacmid K1992); one-step, bait Utp12-FLAG on anti-FLAG affinity matrix, FLAG peptide elution; SDS-PAGE, Coomassie, MS of bands
binder,measurement,setting,value
"Utp4 (protein, UniProt Q06679 1-776) MSSSLLSVLKEKSRSLKIRNKPVKMTSQERMIVHRCRFVDFTPATITSLAFSHKSNINKLTPSDLRLAIGRSNGNIEIWNPRNNWFQEMVIEGGKDRSIEGLCWSNVNGESLRLFSIGGSTVVTEWDLATGLPLRNYDCNSGVIWSISINDSQDKLSVGCDNGTVVLIDISGGPGVLEHDTILMRQEARVLTLAWKKDDFVIGGCSDGRIRIWSAQKNDENMGRLLHTMKVDKAKKESTLVWSVIYLPRTDQIASGDSTGSIKFWDFQFATLNQSFKAHDADVLCLTTDTDNNYVFSAGVDRKIFQFSQNTNKSQKNNRWVNSSNRLLHGNDIRAICAYQSKGADFLVSGGVEKTLVINSLTSFSNGNYRKMPTVEPYSKNVLVNKEQRLVVSWSESTVKIWTMGTDSSTEQNYKLVCKLTLKDDQNISTCSLSPDGQVLVVGRPSTTKVFHLQPVGNKLKVTKLDNDLLLRTSTKLVKFIDNSKIVICSCEDDVFIVDLESEEDEKPQEVELLEVTSTKSSIKVPYINRINHLEVDQNIAVISRGCGVVDILDLKARISKPLARLNNFITAVHINTSRKSVVVITADNKIYEFNMNLNSEAENEDSESVLTQWSKNNTDNLPKEWKTLKENCVGIFSDIENSSRLWFWGATWISRIDFDVDFPINKRRKQKKRTHEGLTITDESNFMNDEEDDEDDDIDMEISENLNVLLNQGNKIKSTDVQRNEESSGHFFFTDKYKPLLFVDLISSNELAIIERNPLTFHSKQKAFIQPKLVF",binding,[1],binds
same,binding,Nan1-HA (S. cerevisiae),binds weakly
"Utp4-TAP (protein, UniProt Q06679 1-776) MSSSLLSVLKEKSRSLKIRNKPVKMTSQERMIVHRCRFVDFTPATITSLAFSHKSNINKLTPSDLRLAIGRSNGNIEIWNPRNNWFQEMVIEGGKDRSIEGLCWSNVNGESLRLFSIGGSTVVTEWDLATGLPLRNYDCNSGVIWSISINDSQDKLSVGCDNGTVVLIDISGGPGVLEHDTILMRQEARVLTLAWKKDDFVIGGCSDGRIRIWSAQKNDENMGRLLHTMKVDKAKKESTLVWSVIYLPRTDQIASGDSTGSIKFWDFQFATLNQSFKAHDADVLCLTTDTDNNYVFSAGVDRKIFQFSQNTNKSQKNNRWVNSSNRLLHGNDIRAICAYQSKGADFLVSGGVEKTLVINSLTSFSNGNYRKMPTVEPYSKNVLVNKEQRLVVSWSESTVKIWTMGTDSSTEQNYKLVCKLTLKDDQNISTCSLSPDGQVLVVGRPSTTKVFHLQPVGNKLKVTKLDNDLLLRTSTKLVKFIDNSKIVICSCEDDVFIVDLESEEDEKPQEVELLEVTSTKSSIKVPYINRINHLEVDQNIAVISRGCGVVDILDLKARISKPLARLNNFITAVHINTSRKSVVVITADNKIYEFNMNLNSEAENEDSESVLTQWSKNNTDNLPKEWKTLKENCVGIFSDIENSSRLWFWGATWISRIDFDVDFPINKRRKQKKRTHEGLTITDESNFMNDEEDDEDDDIDMEISENLNVLLNQGNKIKSTDVQRNEESSGHFFFTDKYKPLLFVDLISSNELAIIERNPLTFHSKQKAFIQPKLVF",binding,[2],binds
"Utp6-HA (protein, UniProt Q02354 1-440) MSKTRYYLEQCIPEMDDLVEKGLFTKNEVSLIMKKRTDFEHRLNSRGSSINDYIKYINYESNVNKLRAKRCKRILQVKKTNSLSDWSIQQRIGFIYQRGTNKFPQDLKFWAMYLNYMKARGNQTSYKKIHNIYNQLLKLHPTNVDIWISCAKYEYEVHANFKSCRNIFQNGLRFNPDVPKLWYEYVKFELNFITKLINRRKVMGLINEREQELDMQNEQKNNQAPDEEKSHLQVPSTGDSMKDKLNELPEADISVLGNAETNPALRGDIALTIFDVCMKTLGKHYINKHKGYYAISDSKMNIELNKETLNYLFSESLRYIKLFDEFLDLERDYLINHVLQFWKNDMYDLSLRKDLPELYLKTVMIDITLNIRYMPVEKLDIDQLQLSVKKYFAYISKLDSASVKSLKNEYRSYLQDNYLKKMNAEDDPRYKILDLIISKL",binding,[3],binds
"Nan1-HA (protein, UniProt Q02931 1-896) MTQSLGIEQYKLSVVSGGKPALNNLSSVTGNKNIARLSQDQRNYIIPFNNQIKVYSVETRQCVKTLKFANNSLLSGIFLQEEENNESIVKILLGDITVPQQEDAHLITVFTNNGHVIVLNYKGKLVESPKHFKISLADEKLANVFHSEGNYRILTTFKDPSQKAHNSLQSYRLYALTFDDAKKQFEVAHQAEWHNVILSNISSNGKLLAHMCKDVSTKDHEHKSISVVSLFDDSVNLSFPLGSILSSQTQSLSYNTRYVSSMAIDNMGQQLAVGFASGVISIVSLADLQIRLLKWHIDSVLSLSFSHDGSYLLSGGWEKVMSLWQLETNSQQFLPRLNGIIIDCQVLGPQGNYYSLILQMTENNSNSDYQFLLLNASDLTSKLSINGPLPVFNSTIKHIQQPISAMNTKNSNSITSLNHSKKKQSRKLIKSRRQDFTTNVEINPINKNLYFPHISAVQIFDFYKNEQVNYQYLTSGVNNSMGKVRFELNLQDPIITDLKFTKDGQWMITYEIEYPPNDLLSSKDLTHILKFWTKNDNETNWNLKTKVINPHGISVPITKILPSPRSVNNSQGCLTADNNGGLKFWSFDSHESNWCLKKISLPNFNHFSNSVSLAWSQDGSLIFHGFDDKLQILDFDTFKKFESLENTKTVSEFTLDSEIQTVKLINDTNLIVATRTTLNAINLLRGQVINSFDLYPFVNGVYKNGHMDRLITCDERTGNIALVINQQLTDLDGVPTINYKSRIIIFDSDLSTKLGNFTHHEYISWIGWNYDTDFIFLDIESTLGVVGTTVNTQLSDEVNNEGILDGLVSNTITTSASNSDIFAEQLHKLSSRGKKSDTRDKNTNDNDEDEEDIALEFINGEKKDKLVNMNSFTSMFDNIQNVQMDTFFDRVMKVLT",binding,[1],binds weakly
